# The list shows a part of the results.
# The chains behind the UniProt entries cited, without tags or fusion partners. Where a name states a change or a piece, a line headed by the entry shows the natural chain unless it says otherwise.
# UniProt Q9UPT6: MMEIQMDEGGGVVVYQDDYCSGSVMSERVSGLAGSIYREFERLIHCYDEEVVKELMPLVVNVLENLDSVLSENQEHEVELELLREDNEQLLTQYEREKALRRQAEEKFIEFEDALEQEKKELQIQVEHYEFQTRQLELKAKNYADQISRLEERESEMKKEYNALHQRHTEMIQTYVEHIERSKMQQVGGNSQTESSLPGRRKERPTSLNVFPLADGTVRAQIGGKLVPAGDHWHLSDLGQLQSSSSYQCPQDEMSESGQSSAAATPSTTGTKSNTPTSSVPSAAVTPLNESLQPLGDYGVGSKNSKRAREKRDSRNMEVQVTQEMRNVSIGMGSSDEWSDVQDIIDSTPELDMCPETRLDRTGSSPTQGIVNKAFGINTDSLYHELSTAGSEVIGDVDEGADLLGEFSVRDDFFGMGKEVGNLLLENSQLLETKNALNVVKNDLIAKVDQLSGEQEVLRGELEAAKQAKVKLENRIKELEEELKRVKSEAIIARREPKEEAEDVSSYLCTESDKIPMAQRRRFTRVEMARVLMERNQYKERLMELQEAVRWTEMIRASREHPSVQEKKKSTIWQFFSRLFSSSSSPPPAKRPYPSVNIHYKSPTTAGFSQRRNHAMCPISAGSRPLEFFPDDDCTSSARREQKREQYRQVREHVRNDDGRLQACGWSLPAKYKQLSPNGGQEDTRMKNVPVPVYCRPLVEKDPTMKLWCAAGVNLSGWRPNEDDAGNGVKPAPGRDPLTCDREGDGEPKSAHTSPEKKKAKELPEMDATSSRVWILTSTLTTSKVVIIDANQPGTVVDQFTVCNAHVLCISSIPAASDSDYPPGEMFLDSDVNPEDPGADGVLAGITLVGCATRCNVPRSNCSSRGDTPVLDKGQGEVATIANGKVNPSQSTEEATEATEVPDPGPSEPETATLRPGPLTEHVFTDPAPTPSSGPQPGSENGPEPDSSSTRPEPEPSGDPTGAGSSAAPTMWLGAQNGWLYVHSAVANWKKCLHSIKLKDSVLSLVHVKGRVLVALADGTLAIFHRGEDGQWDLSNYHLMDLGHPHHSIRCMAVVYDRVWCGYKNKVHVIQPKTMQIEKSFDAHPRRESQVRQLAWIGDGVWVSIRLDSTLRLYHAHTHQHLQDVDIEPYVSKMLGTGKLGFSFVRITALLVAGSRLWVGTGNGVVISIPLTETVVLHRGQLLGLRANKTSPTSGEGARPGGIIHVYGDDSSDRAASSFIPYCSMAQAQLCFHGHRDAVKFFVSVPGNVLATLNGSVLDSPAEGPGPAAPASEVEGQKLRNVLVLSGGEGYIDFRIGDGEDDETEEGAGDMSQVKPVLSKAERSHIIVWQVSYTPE
# UniProt O60476: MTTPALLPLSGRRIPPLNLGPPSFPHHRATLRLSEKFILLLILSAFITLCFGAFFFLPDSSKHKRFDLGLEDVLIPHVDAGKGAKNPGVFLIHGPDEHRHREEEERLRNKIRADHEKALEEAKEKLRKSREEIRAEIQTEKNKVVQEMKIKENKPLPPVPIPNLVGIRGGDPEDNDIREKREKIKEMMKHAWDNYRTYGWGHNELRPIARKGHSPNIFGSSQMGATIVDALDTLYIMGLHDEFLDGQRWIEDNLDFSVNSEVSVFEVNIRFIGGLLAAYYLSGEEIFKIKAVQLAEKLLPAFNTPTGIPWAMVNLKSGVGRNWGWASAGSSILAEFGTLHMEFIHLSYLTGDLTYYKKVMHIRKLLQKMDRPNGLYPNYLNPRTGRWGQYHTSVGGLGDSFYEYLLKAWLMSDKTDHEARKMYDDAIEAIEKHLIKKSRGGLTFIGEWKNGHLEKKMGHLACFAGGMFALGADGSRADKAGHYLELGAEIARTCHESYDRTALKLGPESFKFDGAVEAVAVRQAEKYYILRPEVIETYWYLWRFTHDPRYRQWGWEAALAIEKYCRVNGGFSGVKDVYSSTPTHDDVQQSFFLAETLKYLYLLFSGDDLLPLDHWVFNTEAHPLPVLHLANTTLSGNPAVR
# UniProt O95232: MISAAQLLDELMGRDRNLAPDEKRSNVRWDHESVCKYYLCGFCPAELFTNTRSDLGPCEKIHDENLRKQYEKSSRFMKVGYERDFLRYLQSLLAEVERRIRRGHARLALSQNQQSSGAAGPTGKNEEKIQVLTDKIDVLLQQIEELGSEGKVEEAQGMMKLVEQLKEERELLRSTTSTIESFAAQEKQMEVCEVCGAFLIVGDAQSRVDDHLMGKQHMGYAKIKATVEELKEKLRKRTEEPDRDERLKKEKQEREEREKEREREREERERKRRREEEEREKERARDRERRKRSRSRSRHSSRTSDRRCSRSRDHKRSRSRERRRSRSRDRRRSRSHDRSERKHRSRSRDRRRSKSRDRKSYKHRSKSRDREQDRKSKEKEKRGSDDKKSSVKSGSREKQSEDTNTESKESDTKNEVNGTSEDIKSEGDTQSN
# UniProt Q8IW41: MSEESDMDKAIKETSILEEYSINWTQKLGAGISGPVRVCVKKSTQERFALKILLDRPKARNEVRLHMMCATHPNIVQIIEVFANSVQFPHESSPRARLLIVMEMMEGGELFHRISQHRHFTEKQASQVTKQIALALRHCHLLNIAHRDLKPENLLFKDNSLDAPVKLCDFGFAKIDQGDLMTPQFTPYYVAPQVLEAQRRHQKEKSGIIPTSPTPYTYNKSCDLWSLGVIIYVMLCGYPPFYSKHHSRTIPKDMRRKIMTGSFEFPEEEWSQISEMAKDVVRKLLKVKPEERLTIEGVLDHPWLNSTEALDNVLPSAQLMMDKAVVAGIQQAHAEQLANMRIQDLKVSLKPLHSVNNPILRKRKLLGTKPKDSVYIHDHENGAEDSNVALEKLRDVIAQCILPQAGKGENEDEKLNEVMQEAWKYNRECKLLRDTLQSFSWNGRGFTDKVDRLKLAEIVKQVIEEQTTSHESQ
# UniProt P07948: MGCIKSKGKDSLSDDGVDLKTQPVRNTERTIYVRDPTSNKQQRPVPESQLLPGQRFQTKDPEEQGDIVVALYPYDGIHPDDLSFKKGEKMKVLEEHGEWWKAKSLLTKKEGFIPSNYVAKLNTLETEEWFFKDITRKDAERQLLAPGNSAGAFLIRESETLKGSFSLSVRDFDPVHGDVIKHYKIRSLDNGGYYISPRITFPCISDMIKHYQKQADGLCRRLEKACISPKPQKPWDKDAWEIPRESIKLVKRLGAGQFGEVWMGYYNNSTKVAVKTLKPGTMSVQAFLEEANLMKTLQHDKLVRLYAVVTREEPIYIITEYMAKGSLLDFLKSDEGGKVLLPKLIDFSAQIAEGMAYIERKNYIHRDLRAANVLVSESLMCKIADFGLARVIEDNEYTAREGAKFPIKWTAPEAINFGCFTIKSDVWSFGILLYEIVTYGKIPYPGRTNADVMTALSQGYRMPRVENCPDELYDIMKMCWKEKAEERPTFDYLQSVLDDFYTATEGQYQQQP
# UniProt Q9NX47: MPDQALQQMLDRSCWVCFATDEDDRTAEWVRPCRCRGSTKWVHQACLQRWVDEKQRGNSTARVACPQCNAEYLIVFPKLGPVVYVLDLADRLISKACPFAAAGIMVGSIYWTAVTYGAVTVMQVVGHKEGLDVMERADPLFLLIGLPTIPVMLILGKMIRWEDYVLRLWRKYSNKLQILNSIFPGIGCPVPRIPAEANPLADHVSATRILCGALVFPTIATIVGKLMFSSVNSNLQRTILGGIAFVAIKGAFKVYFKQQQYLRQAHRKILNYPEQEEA
# UniProt Q9HD34: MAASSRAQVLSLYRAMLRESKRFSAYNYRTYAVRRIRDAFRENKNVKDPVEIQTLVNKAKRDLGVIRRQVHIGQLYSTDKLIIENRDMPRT
# UniProt Q9H063: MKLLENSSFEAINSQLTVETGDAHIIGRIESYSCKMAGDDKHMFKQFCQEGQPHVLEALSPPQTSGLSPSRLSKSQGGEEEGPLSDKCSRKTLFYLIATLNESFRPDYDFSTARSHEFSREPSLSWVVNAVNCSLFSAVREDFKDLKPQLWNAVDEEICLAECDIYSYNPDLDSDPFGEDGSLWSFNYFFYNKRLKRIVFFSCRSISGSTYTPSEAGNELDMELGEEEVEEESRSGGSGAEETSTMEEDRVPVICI
# UniProt P20645: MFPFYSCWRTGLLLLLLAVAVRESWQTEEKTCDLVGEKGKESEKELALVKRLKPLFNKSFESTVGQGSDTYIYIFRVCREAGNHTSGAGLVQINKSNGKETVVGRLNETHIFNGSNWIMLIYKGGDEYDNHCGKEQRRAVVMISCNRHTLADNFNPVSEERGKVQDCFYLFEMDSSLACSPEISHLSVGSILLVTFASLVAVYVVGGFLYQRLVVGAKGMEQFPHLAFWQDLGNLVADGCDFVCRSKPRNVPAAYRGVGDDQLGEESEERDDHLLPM
# UniProt P43366: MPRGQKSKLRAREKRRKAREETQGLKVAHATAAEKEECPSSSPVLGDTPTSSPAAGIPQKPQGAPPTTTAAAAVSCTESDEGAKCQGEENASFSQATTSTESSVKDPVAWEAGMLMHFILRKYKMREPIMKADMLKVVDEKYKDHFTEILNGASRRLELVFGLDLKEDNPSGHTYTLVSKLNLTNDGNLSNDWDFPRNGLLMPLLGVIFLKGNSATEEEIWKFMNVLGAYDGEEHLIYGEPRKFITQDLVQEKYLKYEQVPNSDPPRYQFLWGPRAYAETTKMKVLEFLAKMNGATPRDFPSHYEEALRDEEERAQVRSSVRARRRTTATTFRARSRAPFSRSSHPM
# UniProt P43362: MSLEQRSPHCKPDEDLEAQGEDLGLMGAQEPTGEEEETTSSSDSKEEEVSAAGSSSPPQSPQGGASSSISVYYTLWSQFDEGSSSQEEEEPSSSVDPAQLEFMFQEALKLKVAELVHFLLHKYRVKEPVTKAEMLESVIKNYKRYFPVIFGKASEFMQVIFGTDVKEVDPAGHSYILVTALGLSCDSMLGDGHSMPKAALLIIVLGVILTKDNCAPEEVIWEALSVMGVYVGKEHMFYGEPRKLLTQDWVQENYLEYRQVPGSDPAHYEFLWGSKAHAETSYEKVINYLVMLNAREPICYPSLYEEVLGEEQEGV
# UniProt Q9NQ29: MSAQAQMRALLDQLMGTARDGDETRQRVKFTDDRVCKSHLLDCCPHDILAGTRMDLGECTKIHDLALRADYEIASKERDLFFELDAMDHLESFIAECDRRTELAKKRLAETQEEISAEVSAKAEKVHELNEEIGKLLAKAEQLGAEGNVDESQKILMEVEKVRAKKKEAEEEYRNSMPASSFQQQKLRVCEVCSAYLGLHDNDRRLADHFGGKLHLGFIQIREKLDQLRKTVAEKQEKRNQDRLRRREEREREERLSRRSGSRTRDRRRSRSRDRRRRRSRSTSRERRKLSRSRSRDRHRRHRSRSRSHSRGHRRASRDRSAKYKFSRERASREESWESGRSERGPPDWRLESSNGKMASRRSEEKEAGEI
# UniProt Q8WZA0: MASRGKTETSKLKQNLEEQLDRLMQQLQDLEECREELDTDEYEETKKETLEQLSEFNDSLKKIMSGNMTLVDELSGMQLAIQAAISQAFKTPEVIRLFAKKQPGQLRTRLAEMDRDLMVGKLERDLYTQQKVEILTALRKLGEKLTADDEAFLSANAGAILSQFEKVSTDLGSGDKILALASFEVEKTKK
# UniProt Q66K74: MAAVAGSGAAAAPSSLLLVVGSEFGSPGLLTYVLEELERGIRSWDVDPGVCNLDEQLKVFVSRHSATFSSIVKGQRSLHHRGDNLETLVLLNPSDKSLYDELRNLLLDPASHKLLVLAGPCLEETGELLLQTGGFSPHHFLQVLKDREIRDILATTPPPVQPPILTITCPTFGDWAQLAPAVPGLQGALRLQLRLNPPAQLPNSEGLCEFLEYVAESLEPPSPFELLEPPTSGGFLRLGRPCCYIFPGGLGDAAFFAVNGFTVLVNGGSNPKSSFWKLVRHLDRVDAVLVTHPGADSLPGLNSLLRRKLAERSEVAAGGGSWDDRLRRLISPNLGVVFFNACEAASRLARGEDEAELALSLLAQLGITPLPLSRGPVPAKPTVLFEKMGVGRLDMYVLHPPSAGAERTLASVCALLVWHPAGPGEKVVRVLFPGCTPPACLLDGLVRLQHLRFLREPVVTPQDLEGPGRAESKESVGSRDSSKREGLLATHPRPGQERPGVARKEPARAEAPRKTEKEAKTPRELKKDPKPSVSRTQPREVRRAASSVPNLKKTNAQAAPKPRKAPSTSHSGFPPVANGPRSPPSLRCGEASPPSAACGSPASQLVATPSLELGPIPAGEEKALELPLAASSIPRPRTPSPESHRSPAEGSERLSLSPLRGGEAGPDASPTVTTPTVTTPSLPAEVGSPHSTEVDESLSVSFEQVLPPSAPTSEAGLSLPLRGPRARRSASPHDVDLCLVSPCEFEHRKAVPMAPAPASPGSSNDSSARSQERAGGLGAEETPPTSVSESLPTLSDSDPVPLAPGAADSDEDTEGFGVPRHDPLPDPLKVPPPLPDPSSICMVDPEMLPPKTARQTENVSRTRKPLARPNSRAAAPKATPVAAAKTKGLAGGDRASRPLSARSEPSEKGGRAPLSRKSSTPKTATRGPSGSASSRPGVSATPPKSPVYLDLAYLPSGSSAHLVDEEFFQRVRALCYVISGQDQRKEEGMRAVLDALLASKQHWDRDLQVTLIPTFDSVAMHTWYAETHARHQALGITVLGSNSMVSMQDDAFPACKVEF
# Assays:
# Test in all cases: log2 fold change, soluble protein after heating vs DMSO (PISA); higher = thermal stabilisation; K562 lysate, 10 uM; active = over 0.2 and 3.5 SD of the protein, either way, in both replicates (recomputed)
# lapatinib = compound: CS(=O)(=O)CCNCc1ccc(-c2ccc3ncnc(Nc4ccc(OCc5cccc(F)c5)c(Cl)c4)c3c2)o1 [lapatinib]
# Method in brief: (§1)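 To prepare the extract, K562 pellets were dounce-homogenised in PBS pH 7.4 with 1 mM MgCl2, giving crude material at 1 mg/mL protein. This was treated with 10 μM compound for 30 min, then heated in aliquots for 3 min over 48°C-58°C before pooling and addition of NP-40 to 0.5% at 4°C. Centrifugation at 21,000xg for 90 min left soluble protein in the supernatant, which TMTpro 16plex LC-MS/MS quantified with equalised channel sums. Results are log-two fold changes in thermal stability compared with solvent controls, from duplicates.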
# pictilisib = compound: CS(=O)(=O)N1CCN(Cc2cc3nc(-c4cccc5[nH]ncc45)nc(N4CCOCC4)c3s2)CC1 [pictilisib]
# Method in brief: as §1
# crizotinib = compound: C[C@@H](Oc1cc(-c2cnn(C3CCNCC3)c2)cnc1N)c1c(Cl)ccc(F)c1Cl [crizotinib]
# Method in brief: as §1
# [1] = compound: C[C@H](C1=CC=C(C=C1)C(=O)NC2=C3C=CNC3=NC=C2)N
# Method in brief: as §1
# duvelisib = compound: C[C@H](Nc1ncnc2nc[nH]c12)c1cc2cccc(Cl)c2c(=O)n1-c1ccccc1 [duvelisib]
# Method in brief: as §1
# gandotinib = compound: Cc1cc(Nc2cc(CN3CCOCC3)c3nc(C)c(Cc4ccc(Cl)cc4F)n3n2)n[nH]1 [gandotinib]
# Method in brief: as §1
# tozasertib = compound: Cc1cc(Nc2cc(N3CCN(C)CC3)nc(Sc3ccc(NC(=O)C4CC4)cc3)n2)n[nH]1 [tozasertib]
# Method in brief: as §1
# doramapimod = compound: Cc1ccc(-n2nc(C(C)(C)C)cc2NC(=O)Nc2ccc(OCCN3CCOCC3)c3ccccc23)cc1 [doramapimod]
# Method in brief: as §1
# bafetinib = compound: Cc1ccc(NC(=O)c2ccc(CN3CC[C@H](N(C)C)C3)c(C(F)(F)F)c2)cc1Nc1nccc(-c2cncnc2)n1 [bafetinib]
# Method in brief: as §1
# [2] = compound: Cc1cccc(CC(=O)N2CCc3c2ccc(-c2cn(C)c4ncnc(N)c24)c3F)n1
# Method in brief: as §1
# nilotinib = compound: Cc1cn(-c2cc(NC(=O)c3ccc(C)c(Nc4nccc(-c5cccnc5)n4)c3)cc(C(F)(F)F)c2)cn1 [nilotinib]
# Method in brief: as §1
# [3] = compound: Cc1nc(Nc2n[nH]c3c2CN(C(=O)N[C@H](CN(C)C)c2ccccc2)C3(C)C)c2sccc2n1
# Method in brief: as §1
# dasatinib = compound: Cc1nc(Nc2ncc(C(=O)Nc3c(C)cccc3Cl)s2)cc(N2CCN(CCO)CC2)n1 [dasatinib]
# Method in brief: as §1
# [4] = compound: Cc1ncc(-c2ccnc(Nc3ccc(S(C)(=O)=O)cc3)n2)n1C(C)C
# Method in brief: as §1
# [5] = compound: Cn1cc(-c2ccc3c(c2)CCN3C(=O)Cc2cccc(C(F)(F)F)c2)c2c(N)ncnc21
# Method in brief: as §1
# quisinostat = compound: Cn1cc(CNCC2CCN(c3ncc(C(=O)NO)cn3)CC2)c2ccccc21 [quisinostat]
# Method in brief: as §1
# tipifarnib = compound: Cn1cncc1[C@@](N)(c1ccc(Cl)cc1)c1ccc2c(c1)c(-c1cccc(Cl)c1)cc(=O)n2C [tipifarnib]
# Method in brief: as §1
# [6] = compound: NC(=O)Nc1cc(-c2cccc(F)c2)sc1C(=O)N[C@H]1CCCNC1
# Method in brief: as §1
# [7] = compound: NC(=O)c1cnc(N[C@@H]2CCCC[C@@H]2N)nc1Nc1cccc(-n2nccn2)c1
# Method in brief: as §1
# [8] = compound: NC1(c2ccc(-c3nc4ccn5c(=O)[nH]nc5c4cc3-c3ccccc3)cc2)CCC1
# Method in brief: as §1
Target,log2 fold change (lapatinib),log2 fold change (pictilisib),log2 fold change (crizotinib),log2 fold change [1],log2 fold change (duvelisib),log2 fold change (gandotinib),log2 fold change (tozasertib),log2 fold change (doramapimod),log2 fold change (bafetinib),log2 fold change [2],log2 fold change (nilotinib),log2 fold change [3],log2 fold change (dasatinib),log2 fold change [4],log2 fold change [5],log2 fold change (quisinostat),log2 fold change (tipifarnib),log2 fold change [6],log2 fold change [7],log2 fold change [8]
MAPK8IP3 (UniProt Q9UPT6),inactive: -0.009,inactive: -0.023,inactive: -0.022,inactive: 0.023,inactive: 0.016,inactive: -0.026,inactive: 0.068,inactive: 0.02,inactive: 0.034,inactive: -0.054,inactive: -0.003,inactive: 0.025,inactive: 0.035,inactive: -0.02,inactive: -0.011,inactive: 0.04,inactive: 0.043,inactive: -0.027,inactive: 0,inactive: 0.008
MAN1A2 (UniProt O60476),inactive: 0.038,inactive: -0.038,inactive: -0.019,inactive: 0.088,inactive: -0.047,inactive: -0.142,inactive: -0.005,inactive: -0.032,inactive: -0.007,inactive: -0.09,inactive: 0.001,inactive: 0.005,inactive: -0.007,inactive: -0.008,inactive: 0.002,inactive: 0.066,inactive: 0.012,inactive: 0,inactive: -0.018,inactive: -0.01
MAP3K4 (UniProt Q9Y6R4),inactive: -0.02,inactive: 0.009,inactive: 0.033,inactive: 0.064,inactive: -0.017,inactive: 0.034,inactive: 0.092,inactive: 0.073,inactive: -0.031,inactive: -0.041,inactive: 0.003,inactive: 0.206,active: 0.485,inactive: 0.095,inactive: 0.132,inactive: -0.078,inactive: -0.015,inactive: 0.203,inactive: 0.045,inactive: -0.021
LUC7L3 (UniProt O95232),inactive: 0.012,inactive: 0.026,inactive: 0.02,inactive: -0.085,inactive: 0.018,inactive: -0.038,inactive: -0.001,inactive: 0.048,inactive: -0.037,inactive: 0.039,inactive: -0.01,inactive: -0.033,inactive: -0.013,inactive: -0.007,inactive: 0.001,inactive: -0.051,inactive: -0.024,inactive: -0.062,inactive: 0.012,inactive: -0.055
MAPKAPK5 (UniProt Q8IW41),inactive: 0.05,inactive: -0.008,inactive: -0.085,inactive: 0.111,inactive: 0.04,inactive: -0.07,inactive: -0.004,inactive: 0.015,inactive: 0.019,inactive: -0.053,inactive: -0.003,inactive: 0.056,inactive: 0.011,inactive: 0.064,inactive: 0.024,inactive: -0.222,inactive: -0.065,active: 0.519,inactive: -0.006,inactive: -0.006
LYN (UniProt P07948),inactive: -0.184,inactive: -0.036,inactive: 0.093,inactive: -0.079,inactive: -0.042,inactive: 0.551,inactive: 0.11,inactive: 0.026,active: 0.763,inactive: -0.005,inactive: 0.158,inactive: 0.218,inactive: 0.457,inactive: -0.026,inactive: 0.095,inactive: -0.125,inactive: -0.154,active: 0.842,inactive: 0.084,inactive: -0.037
MARCHF5 (UniProt Q9NX47),inactive: -0.056,inactive: -0.034,inactive: -0.066,inactive: -0.166,inactive: 0.004,inactive: 0.055,inactive: -0.102,inactive: -0.034,inactive: 0.096,inactive: 0.017,inactive: 0.093,inactive: -0.009,inactive: -0.064,inactive: -0.033,inactive: -0.052,inactive: -0.027,inactive: 0.013,inactive: 0.014,inactive: -0.027,inactive: 0.017
LYRM4 (UniProt Q9HD34),inactive: -0.036,inactive: -0.026,inactive: -0.034,active: 0.413,inactive: 0.031,inactive: -0.095,inactive: -0.021,inactive: -0.047,inactive: 0.008,inactive: -0.007,inactive: 0.009,inactive: -0.031,inactive: -0.061,inactive: 0.052,inactive: -0.028,inactive: -0.093,inactive: -0.028,inactive: 0.054,inactive: -0.036,inactive: -0.005
MAF1 (UniProt Q9H063),inactive: 0.022,inactive: -0.014,inactive: -0.051,inactive: 0.149,inactive: -0.046,inactive: 0.106,inactive: 0.029,inactive: 0.014,inactive: 0.005,inactive: -0.153,inactive: 0.008,inactive: 0.019,inactive: -0.085,inactive: -0.016,inactive: 0.044,inactive: -0.027,inactive: 0.002,inactive: 0.125,inactive: 0.016,inactive: 0.043
M6PR (UniProt P20645),inactive: 0.005,inactive: 0.063,inactive: 0.012,inactive: -0.031,inactive: 0.047,inactive: 0.018,inactive: -0.036,inactive: -0.03,inactive: 0.177,inactive: 0.008,inactive: -0.054,inactive: 0.069,inactive: 0.009,inactive: -0.029,inactive: 0.016,inactive: 0.003,inactive: -0.041,inactive: 0.009,inactive: 0.042,inactive: 0.03
MAGEB1 (UniProt P43366),inactive: -0.008,inactive: -0.03,inactive: -0.036,inactive: -0.003,inactive: 0.012,inactive: -0.069,inactive: -0.009,inactive: -0.002,inactive: -0.034,inactive: 0.01,inactive: -0.022,inactive: 0.026,inactive: -0.027,inactive: 0.022,inactive: 0.02,inactive: -0.098,inactive: 0.01,inactive: 0.035,inactive: -0.001,inactive: -0.008
MAGEA9 (UniProt P43362),inactive: -0.033,inactive: 0,inactive: -0.022,inactive: -0.078,inactive: 0.061,inactive: 0.023,inactive: 0,inactive: 0.042,inactive: -0.022,inactive: 0.003,inactive: 0.024,inactive: 0.015,inactive: 0.032,inactive: 0.013,inactive: -0.003,inactive: -0.014,inactive: 0.012,inactive: 0.003,inactive: -0.008,inactive: 0.002
MAP2K1 (UniProt Q02750),inactive: -0.065,inactive: -0.009,inactive: 0.001,inactive: 0.204,inactive: -0.021,inactive: -0.042,inactive: 0.152,inactive: -0.002,inactive: -0.027,inactive: -0.047,inactive: -0.02,inactive: 0.107,active: 0.296,inactive: 0.057,inactive: -0.057,inactive: -0.064,inactive: -0.037,active: 0.4,inactive: 0.033,inactive: -0.02
LUC7L (UniProt Q9NQ29),inactive: -0.022,inactive: -0.009,inactive: 0.097,inactive: -0.097,inactive: 0.006,active: -0.32,inactive: 0.012,inactive: -0.028,inactive: -0.022,inactive: 0.023,inactive: -0.027,inactive: -0.113,inactive: -0.032,inactive: -0.047,inactive: 0.023,inactive: 0.22,inactive: 0.033,inactive: -0.207,inactive: -0.014,inactive: 0.032
LZIC isoform 2 (UniProt Q8WZA0),inactive: -0.006,inactive: 0.009,inactive: 0.041,inactive: 0.001,inactive: 0.035,inactive: 0.026,inactive: -0.013,inactive: -0.022,inactive: -0.031,inactive: -0.037,inactive: 0.003,inactive: 0.019,inactive: 0.027,inactive: 0.025,inactive: -0.002,inactive: 0.072,inactive: -0.008,inactive: -0.046,inactive: 0.007,inactive: 0.009
MAP1S (UniProt Q66K74),inactive: 0.009,inactive: -0.06,inactive: -0.016,inactive: -0.021,inactive: 0.004,inactive: -0.065,inactive: 0.035,inactive: 0.003,inactive: -0.03,inactive: 0.049,inactive: 0.007,inactive: -0.022,inactive: -0.007,inactive: -0.009,inactive: 0.009,inactive: -0.006,inactive: 0.02,inactive: 0.026,inactive: 0,inactive: 0

# Reformatted tab-delimited: entries from further up
Target	log2 fold change (lapatinib)	log2 fold change (pictilisib)	log2 fold change (crizotinib)	log2 fold change [1]	log2 fold change (duvelisib)	log2 fold change (gandotinib)	log2 fold change (tozasertib)	log2 fold change (doramapimod)	log2 fold change (bafetinib)	log2 fold change [2]	log2 fold change (nilotinib)	log2 fold change [3]	log2 fold change (dasatinib)	log2 fold change [4]	log2 fold change [5]	log2 fold change (quisinostat)	log2 fold change (tipifarnib)	log2 fold change [6]	log2 fold change [7]	log2 fold change [8]
MAPKAPK5 (UniProt Q8IW41)	inactive: 0.05	inactive: -0.008	inactive: -0.085	inactive: 0.111	inactive: 0.04	inactive: -0.07	inactive: -0.004	inactive: 0.015	inactive: 0.019	inactive: -0.053	inactive: -0.003	inactive: 0.056	inactive: 0.011	inactive: 0.064	inactive: 0.024	inactive: -0.222	inactive: -0.065	active: 0.519	inactive: -0.006	inactive: -0.006
MARCHF5 (UniProt Q9NX47)	inactive: -0.056	inactive: -0.034	inactive: -0.066	inactive: -0.166	inactive: 0.004	inactive: 0.055	inactive: -0.102	inactive: -0.034	inactive: 0.096	inactive: 0.017	inactive: 0.093	inactive: -0.009	inactive: -0.064	inactive: -0.033	inactive: -0.052	inactive: -0.027	inactive: 0.013	inactive: 0.014	inactive: -0.027	inactive: 0.017
MAP2K1 (UniProt Q02750)	inactive: -0.065	inactive: -0.009	inactive: 0.001	inactive: 0.204	inactive: -0.021	inactive: -0.042	inactive: 0.152	inactive: -0.002	inactive: -0.027	inactive: -0.047	inactive: -0.02	inactive: 0.107	active: 0.296	inactive: 0.057	inactive: -0.057	inactive: -0.064	inactive: -0.037	active: 0.4	inactive: 0.033	inactive: -0.02
